At least one structure is not confirmed: it was looked up by name or label, or the drawing left a doubt.
Legend:
[1] = tested on: porcine model; test: Animal studies with rapamycin-coated stents, porcine; type: in vivo; settings: porcine and rabbit models, nonerodible polymeric stent coating, 35-430 ug/15-18 mm coronary stent, maximal at about twenty-eight to thirty days
[2] = tested on: human coronary artery smooth muscle cells; test: Anti-proliferative activity in synchronized cultured coronary artery smooth muscle cells, two percent fetal bovine serum; type: cell-based
Excerpt: The multiple curves represent various concentrations of topotecan ranging from zero to three hundred nanomolar concentrations.
The multiple curves represent various concentrations of etoposide ranging from zero to eight hundred nanomolar concentrations.
Referring to FIG. 66, there is illustrated, in graphical format, the anti-proliferative activity of Panzem® in synchronized cultured human coronary artery smooth muscle cells stimulated with two percent fetal bovine serum.
The multiple curves represent various concentrations of Panzem® ranging from zero to 100 micromolar concentrations.

[3] = tested on: monocyte chemotactic protein (MCP-1); test: Cytokine (MCP-1) levels in vascular tissue, rapamycin delivered from a stent; type: in vivo
[4] = In vitro release kinetics from stent coatings; type: physicochemical
[5] = Liquid formulations: drug concentration by liquid chromatography and visual observation; type: physicochemical

With `CO[C@H]1C[C@@H]2CC[C@@H](C)[C@@](O)(O2)C(=O)C(=O)N2CCCC[C@H]2C(=O)O[C@H]([C@H](C)C[C@@H]2CC[C@@H](O)[C@H](OC)C2)CC(=O)[C@H](C)/C=C(\C)[C@@H](O)[C@@H](OC)C(=O)[C@H](C)C[C@H](C)/C=C/C=C/C=C/1C` [rapamycin] the “peak reduction in neointimal hyperplasia” value [1] was “fifty to fifty-five”, the “anti-proliferative activity (single agent)” value [2] was “effective” and the “monocyte chemotactic protein (MCP-1) levels in the vascular wall” value [3] was “highly effective in reducing monocyte chemotactic protein (MCP-1) levels”. For the same molecule, the “in vitro release of rapamycin, effect of topcoat” value ([4]; 600 μg EVA/BMA basecoat with rapamycin and mycophenolic acid, no, 100 or 200 μg BMA topcoat) was “BMA topcoat does slow the release of rapamycin”, the “in vitro elution of rapamycin compared with Panzem” value ([4]; Bx Velocity stent, inner layer 45% Panzem, outer layer 40% rapamycin, EVA/BMA, no topcoat) was “elutes more slowly than Panzem®” and the “in vitro release rates of rapamycin compared with in vivo” value ([4]; EVA/BMA basecoat with rapamycin and mycophenolic acid) was “release rates are faster than in the in vivo testing”. For the same molecule, the “in vitro drug release rate, 200 μg versus 100 μg BMA diffusion overcoat” value ([4]; layered sirolimus/cilostazol coatings of FIGS. 75 and 77) was “comparatively slower from the configuration comprising the thicker diffusion overcoat of BMA”, the in vitro release ([4]; single layer sirolimus + cilostazol in EVA/BMA, 100 μg BMA overcoat (FIG. 83)) was roughly 35% and the “dilution with water at which sirolimus starts to precipitate out of solution” value ([5]; 4 mg/ml formulation with PEG 200) was “five to ten”. For the same molecule, the “sirolimus concentration in the final solution (HPLC)” value ([5]; water, ethanol less than two percent, Vitamin E TPGS) was 15 mg/mL.
